Assay results taken from article PMC6219832.
Substitutions are numbered along the chain they refer to. Results are given in words; binding and its absence hold for the method and conditions named. For part of these data: Binding seen in cells or lysates may run through a third protein. Some binding calls cover weakened binding; strength is not graded here. For part of these data: Tags and fused reporters may be left off the sequences shown.

Chains of the proteins cited; added tags and fusions are not shown.
UniProt O14744: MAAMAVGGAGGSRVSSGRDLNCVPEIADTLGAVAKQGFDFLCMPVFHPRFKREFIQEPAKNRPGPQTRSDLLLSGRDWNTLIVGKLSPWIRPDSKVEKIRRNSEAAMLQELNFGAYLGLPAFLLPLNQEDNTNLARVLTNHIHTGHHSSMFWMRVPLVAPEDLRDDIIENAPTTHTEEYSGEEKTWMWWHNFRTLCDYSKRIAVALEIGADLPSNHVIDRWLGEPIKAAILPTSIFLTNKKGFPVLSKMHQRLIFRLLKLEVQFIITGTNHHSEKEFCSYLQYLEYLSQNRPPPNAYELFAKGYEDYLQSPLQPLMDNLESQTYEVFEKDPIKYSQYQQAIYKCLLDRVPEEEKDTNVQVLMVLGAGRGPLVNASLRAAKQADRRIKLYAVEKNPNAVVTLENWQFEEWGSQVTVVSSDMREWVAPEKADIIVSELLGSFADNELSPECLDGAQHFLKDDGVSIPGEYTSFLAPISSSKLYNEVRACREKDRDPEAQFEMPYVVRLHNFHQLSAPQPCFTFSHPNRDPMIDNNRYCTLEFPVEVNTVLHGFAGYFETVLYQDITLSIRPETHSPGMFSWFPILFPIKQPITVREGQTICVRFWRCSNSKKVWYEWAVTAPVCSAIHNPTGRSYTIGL

Experiments:
[1] = molecular target: T1, Myc-DUSP14, expressed in HEK293T cells (human) (UniProt O95147); assay: co-IP; HEK293T cells cotransfected with Myc-DUSP14 and Flag-PRMT5; lysates immunoprecipitated with anti-Flag or anti-DUSP14 antibody, immunoblot
T1 sequence: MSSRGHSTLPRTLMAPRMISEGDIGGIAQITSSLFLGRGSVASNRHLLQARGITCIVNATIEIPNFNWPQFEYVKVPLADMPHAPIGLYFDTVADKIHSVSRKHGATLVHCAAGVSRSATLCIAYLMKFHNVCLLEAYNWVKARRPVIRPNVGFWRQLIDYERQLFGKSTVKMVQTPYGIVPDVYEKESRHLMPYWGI

[2] = molecular target: T1, Myc-DUSP14, expressed in HEK293T cells (human); assay: AlphaScreen or HTRF; Alpha technology; lysates of HEK293T cells cotransfected with Myc-DUSP14 and Flag-PRMT5, anti-Myc acceptor beads 60 min, then anti-Flag donor beads 60 min; proximity <200 nm
[3] = molecular target: T2, Flag-DUSP14 (wild-type), expressed in HEK293T cells (human) (UniProt O95147); assay: proximity ligation; in situ PLA (Duolink) in cotransfected HEK293T cells with anti-Flag and anti-Myc antibodies; proximity <40 nm
T2 sequence: T1 sequence

[4] = molecular target: T3, Flag-DUSP14 (3R→K) mutant, expressed in HEK293T cells (human) (UniProt O95147); assay: co-IP; HEK293T cells cotransfected with Myc-PRMT5 plus Flag-DUSP14 wild-type or 3R→K; anti-Flag immunoprecipitation, immunoblot with anti-PRMT5
T3 sequence: T1 sequence with R17K, R38K, R45K

[5] = molecular target: T2, Flag-DUSP14 (wild-type), expressed in HEK293T cells (human); assay: as above
[6] = molecular target: T4, endogenous DUSP14 of HEK293T cells (human (endogenous in HEK293T)) (UniProt O95147); assay: co-IP; endogenous proteins in HEK293T lysate; normal serum as control
T4 sequence: T1 sequence

[7] = molecular target: T5, Flag-DUSP14 (3R→K) mutant, expressed in Jurkat (J-TAg clone) T cells (human) (UniProt O95147); assay: co-IP; Jurkat (J-TAg clone) T cells transfected with Flag-DUSP14 wild-type or 3R→K, stimulated with anti-CD3 antibody; anti-Flag immunoprecipitation, immunoblot with anti-PRMT5
T5 sequence: T1 sequence with R17K, R38K, R45K

[8] = molecular target: T6, Flag-DUSP14 (wild-type), expressed in Jurkat (J-TAg clone) T cells (human) (UniProt O95147); assay: as above
T6 sequence: T1 sequence

[9] = molecular target: T7, Flag-TAB1, expressed in HEK293T cells (UniProt Q15750); assay: proximity ligation; in situ PLA (Duolink) in cotransfected HEK293T cells with anti-Flag and anti-Myc antibodies; proximity <40 nm
T7 sequence: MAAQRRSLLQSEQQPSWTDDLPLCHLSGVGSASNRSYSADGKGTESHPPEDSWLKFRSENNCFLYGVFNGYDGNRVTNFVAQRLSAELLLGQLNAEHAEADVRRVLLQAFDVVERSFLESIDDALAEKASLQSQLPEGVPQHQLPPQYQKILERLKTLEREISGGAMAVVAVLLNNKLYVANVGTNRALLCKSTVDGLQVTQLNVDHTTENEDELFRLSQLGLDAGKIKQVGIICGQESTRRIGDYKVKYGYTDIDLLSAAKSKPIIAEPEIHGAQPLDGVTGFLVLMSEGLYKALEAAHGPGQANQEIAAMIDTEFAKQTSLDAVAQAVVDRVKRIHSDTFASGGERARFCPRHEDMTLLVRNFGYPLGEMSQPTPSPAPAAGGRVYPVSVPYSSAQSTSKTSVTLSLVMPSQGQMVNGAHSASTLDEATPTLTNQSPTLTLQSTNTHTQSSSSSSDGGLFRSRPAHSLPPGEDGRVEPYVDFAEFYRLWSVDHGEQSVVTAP

[10] = molecular target: T8, Flag-TAK1, expressed in HEK293T cells (UniProt O43318); assay: as above
T8 sequence: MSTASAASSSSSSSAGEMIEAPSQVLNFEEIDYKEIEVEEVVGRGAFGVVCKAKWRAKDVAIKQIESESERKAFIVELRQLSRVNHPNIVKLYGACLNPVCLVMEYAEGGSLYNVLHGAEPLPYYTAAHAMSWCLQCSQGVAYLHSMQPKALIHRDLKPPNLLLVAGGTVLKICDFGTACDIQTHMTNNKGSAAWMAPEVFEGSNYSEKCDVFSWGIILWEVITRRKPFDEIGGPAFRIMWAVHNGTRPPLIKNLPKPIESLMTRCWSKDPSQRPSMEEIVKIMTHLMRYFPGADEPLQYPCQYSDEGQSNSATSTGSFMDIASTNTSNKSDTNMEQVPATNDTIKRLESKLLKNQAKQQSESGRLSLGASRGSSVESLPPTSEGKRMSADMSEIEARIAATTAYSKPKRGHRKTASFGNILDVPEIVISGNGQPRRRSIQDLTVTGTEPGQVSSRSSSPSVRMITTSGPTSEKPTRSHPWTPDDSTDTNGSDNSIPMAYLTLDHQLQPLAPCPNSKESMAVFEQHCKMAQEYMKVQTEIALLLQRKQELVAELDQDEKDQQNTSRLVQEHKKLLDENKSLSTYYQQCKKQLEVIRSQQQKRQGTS

[11] = molecular target: Flag-PRMT5, expressed in HEK293T cells (UniProt O14744); assay: co-IP; HEK293T cells cotransfected with Myc-DUSP14 and Flag-PRMT5; lysates immunoprecipitated with anti-Flag or anti-DUSP14 antibody, immunoblot

For “Flag-PRMT5, expressed in HEK293T cells (from UniProt O14744 1-637) (enzyme)”, the binding [1] was “binds” and the binding [2] was “binds”.

For “Myc-PRMT5, expressed in HEK293T cells (from UniProt O14744 1-637) (enzyme)”, the binding [3] was “binds”, the binding [4] was “binds” and the binding [5] was “binds”.

For “endogenous PRMT5 of HEK293T cells (from UniProt O14744 1-637) (enzyme)”, the binding [6] was “binds”.

For “endogenous PRMT5 of Jurkat (J-TAg clone) T cells (from UniProt O14744 1-637) (enzyme)”, the binding [7] was “binds” and the binding [8] was “binds”.

B1: Myc-DUSP14, expressed in HEK293T cells (enzyme, UniProt O95147 1-198)
chain: T1 sequence
With B1 the binding [9] was “binds”, the binding [10] was “no binding” and the binding [11] was “binds”.

B2: Myc-TAB1, expressed in HEK293T cells (protein, UniProt Q15750 1-504)
chain: T7 sequence
In the case of B2, the binding [10] is reported as “binds”.
